# Assay results published in the supplement of paper PMC3334620.
# In all, about 33,000 sequences were measured (“E-score (-0.5 to 0.5)”: median about -0.0059, highest 2% from about 0.26 on). The list shows a part of the results.
# Target: T1, Cin5 (UniProt P40917)
# T1 sequence: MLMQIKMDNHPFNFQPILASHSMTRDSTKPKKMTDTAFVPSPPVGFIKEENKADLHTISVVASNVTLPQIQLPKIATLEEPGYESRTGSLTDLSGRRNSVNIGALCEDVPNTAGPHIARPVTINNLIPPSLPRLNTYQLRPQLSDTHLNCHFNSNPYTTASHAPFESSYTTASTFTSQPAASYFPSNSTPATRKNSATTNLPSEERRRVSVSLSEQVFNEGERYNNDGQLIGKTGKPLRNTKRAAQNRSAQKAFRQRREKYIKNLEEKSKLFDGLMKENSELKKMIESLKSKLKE
# Test: PBM E-score (8-mer binding enrichment) (E-score (-0.5 to 0.5)); higher = stronger / more preferred TF binding
# Settings: protein concentration: 100 nM; construct: GST-full length
# Method: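 Universal 'all 10-mer' protein binding microarrays (Agilent AMADID 015681) probed with GST-tagged S. cerevisiae TFs (full-length or DBD) made by in vitro transcription/translation (PURExpress), about 100-200 nM. Bound TF was detected with fluorescent anti-GST. Each ungapped 8-mer (which stands for itself and its reverse complement) is scored by the PBM enrichment score (E-score), a modified Wilcoxon-Mann-Whitney statistic from -0.5 to +0.5, computed with the Universal PBM Analysis Suite. Scale: above 0.35 generally sequence-specific binding.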
row,Sequence,PBM E-score
1,AGGTACCG,-0.0749
2,CGAATTGC,0.119
3,TCGCGGAA,-0.0345
4,GAATCTGC,-0.00411
5,GAGCCGCA,-0.0266
6,CTACCCCC,-0.404
7,CCGACCGA,-0.142
8,ATTAGCAC,0.133
9,GGACTGCC,-0.188
10,ATCCGGCG,-0.0154
11,ATACGGAT,0.202
12,ACAGCGCA,-0.0308
13,ATGTGAAT,0.101
14,AAATCCAT,0.312
15,AGCTACAG,-0.0414
16,AGTTTACA,0.0922
17,CCTCCTTC,-0.183
18,AAAGAAGC,-0.013
19,CCAAGCGC,-0.0394
20,CCGACTCC,-0.155
21,GGTAATCA,0.289
22,CTTGCGTC,-2e-05
23,TAAAAGGA,0.116
24,AGAGAGAC,-0.164
25,GCGAATTA,0.266

row,Sequence,PBM E-score
1,GACGTGGA,0.0127
2,AAGTAGCC,-0.151
3,GAGCTTGC,-0.0833
4,ACAATTGG,-0.0476
5,AACATTTC,0.0406
6,CCCTTTTA,-0.261
7,GCCATACC,-0.237
8,CGGACTAG,-0.124
9,TCGTCAGA,-0.145
10,GAGTTATA,0.0627
11,AGGATAGG,-0.159
12,GGCGAGGA,-0.236
13,GCTATCCA,-0.049
14,GCGGCAAC,-0.105
15,ACATGCGA,-0.123
16,ATGTGGTA,0.186
17,CGTTAGAG,-0.135
18,GCGAGAGA,-0.169
19,ACTGATCT,0.116
20,GAGGACAC,0.015
21,ACCTCCAC,-0.0645
22,ATCGGGTC,0.0596
23,CAGCACTC,0.0369
24,ATTCTTAA,-0.0342
25,CCGGGAAC,0.0243

# For reference, some entries already given:
row,Sequence,PBM E-score
19,ACTGATCT,0.116
20,GAGGACAC,0.015
21,ACCTCCAC,-0.0645
22,ATCGGGTC,0.0596
23,CAGCACTC,0.0369

# Continuation.

row,Sequence,PBM E-score
1,CCCTTGCC,-0.119
2,GCGACACC,-0.204
3,GATTTTGC,-0.0519
4,CCACCGGC,-0.207
5,ACCCCTTC,-0.0781
6,CATCGCCG,0.0495
7,CGTCTTTA,0.134
8,CCATCAGG,-0.146
9,ATATAAGG,0.137
10,TATCACGA,0.0776
11,GTAAGAAC,0.0555
12,CTCGTAAC,0.129
13,AATTTCAA,0.103
14,ACAAACCT,0.187
15,GTATGCTA,-0.0513
16,CACCACAA,-0.0267
17,CCGCTAGG,-0.167
18,CGGGCACG,-0.19
19,AACCTTCT,-0.155
20,GTAATATA,0.323
21,ACGTCGCA,-0.0635
22,ACTGGGCA,-0.0941
23,GCGCAATA,0.00923
24,AGAAGGGC,-0.254
25,GGCACATA,-0.0683

row,Sequence,PBM E-score
1,ATCAGGGG,-0.0935
2,GTGTCCCA,-0.119
3,CAGCGAAC,0.014
4,GGAGGCAA,-0.121
5,AGGTCGAG,-0.133
6,AGAGATAA,0.213
7,CACACACG,-0.0573
8,ATCGGCTG,-0.0203
9,AACGCAGA,-0.0604
10,CGTGGACC,-0.303
11,AGTTTTTC,0.0533
12,CGTTGCCA,-0.0899
13,ATCGATTC,0.0794
14,GGGCTGAA,-0.0295
15,GACGGTGA,-0.0952
16,CGTAGAGC,-0.0105
17,CCATTCGA,-0.045
18,CTTCCCAC,0.00503
19,GCAACCAA,0.119
20,GGAACACC,-0.114
21,AGAACTAA,0.169
22,GACCCTCC,-0.0998
23,TCAACGCA,-0.00081
24,ATCGACGG,-0.12
25,GGCTCTAC,-0.194

row,Sequence,PBM E-score
1,TAAGACAA,0.145
2,CTCCGAGC,0.055
3,CATAATTA,0.308
4,AAGATGTA,0.172
5,ACCCTAAT,0.0242
6,ACGGGTTC,-0.0118
7,CGGATCAA,0.177
8,CCGCCGCA,-0.0653
9,CCCGGATA,-0.0338
10,CTCTCATC,-0.139
11,CGTCCACA,-0.0072
12,ATGATTTA,0.268
13,ACACCGAC,-0.08
14,CATCGGGA,0.0547
15,GGCAAATA,0.0144
16,CAGGAGGG,-0.295
17,GTCCCATA,-0.0251
18,CGGACACC,-0.196
19,GGGCGTTA,-0.21
20,GTCCGACA,-0.0459
21,AGCGGAGC,-0.183
22,TAGTCTGA,-0.0562
23,GAGCGTGC,0.0704
24,ATATTTGC,0.209
25,AGCAGATC,0.0939

row,Sequence,PBM E-score
1,ATCGCAGG,0.0111
2,GGATGTAA,0.161
3,CACTTTAG,0.015
4,ATTGAGAC,0.0974
5,GGATTCTA,-0.0627
6,CTCGTAGC,-0.00363
7,ATCTGTTC,0.11
8,ATCGCCTG,-0.154
9,CGGGCGAG,0.0331
10,GCAGAGGC,-0.254
11,AAATAACG,0.19
12,AGACGCAA,0.0481
13,GGGCAGAA,0.145
14,CGTCTTAC,-0.0902
15,CCCTTACG,-0.176
16,CCGAAATC,0.106
17,CATATCTA,0.188
18,TGTGCAAA,-0.043
19,AGCGGGTA,0.00084
20,GGCTCAAC,-0.226
21,CATGCCCC,-0.0954
22,TGTTGGAA,-0.0219
23,AACACGCA,0.0582
24,CGTCTCCC,0.0276
25,AGACTTGA,-0.201

# Part of the list above, tab-delimited:
row	Sequence	PBM E-score
2	GGATGTAA	0.161
3	CACTTTAG	0.015
4	ATTGAGAC	0.0974

# Next records follow.

row,Sequence,PBM E-score
1,GCATGCGC,-0.00885
2,AGTACAAT,0.194
3,ACTACAGC,-0.109
4,CTGTCCAC,-0.165
5,CCACGAGG,-0.0525
6,AAATATAA,0.203
7,AAACTGTA,0.0732
8,GGTGGGGA,0.212
9,ACAATTTG,0.0697
10,AGTGTAAT,0.0629
11,AAACGGCG,0.136
12,CACTAAAC,0.113
13,CCGGGCGA,-0.0798
14,AGCGTCGC,-0.146
15,AAACCGAG,0.0209
16,ATGACACG,0.019
17,AAGCAGGG,-0.123
18,AGGACGGA,-0.0996
19,GCATAATA,0.235
20,AGGGCAAA,-0.0014
21,GCGCAAAC,0.151
22,GCTGCAAC,-0.0917
